# According to PubChem BioAssay AID743266 (National Center for Advancing Translational Sciences (NCATS), 2014):
# Amino acid sequences for entries named in this document (tags omitted).
# UniProt Q03431, whole entry, looked up: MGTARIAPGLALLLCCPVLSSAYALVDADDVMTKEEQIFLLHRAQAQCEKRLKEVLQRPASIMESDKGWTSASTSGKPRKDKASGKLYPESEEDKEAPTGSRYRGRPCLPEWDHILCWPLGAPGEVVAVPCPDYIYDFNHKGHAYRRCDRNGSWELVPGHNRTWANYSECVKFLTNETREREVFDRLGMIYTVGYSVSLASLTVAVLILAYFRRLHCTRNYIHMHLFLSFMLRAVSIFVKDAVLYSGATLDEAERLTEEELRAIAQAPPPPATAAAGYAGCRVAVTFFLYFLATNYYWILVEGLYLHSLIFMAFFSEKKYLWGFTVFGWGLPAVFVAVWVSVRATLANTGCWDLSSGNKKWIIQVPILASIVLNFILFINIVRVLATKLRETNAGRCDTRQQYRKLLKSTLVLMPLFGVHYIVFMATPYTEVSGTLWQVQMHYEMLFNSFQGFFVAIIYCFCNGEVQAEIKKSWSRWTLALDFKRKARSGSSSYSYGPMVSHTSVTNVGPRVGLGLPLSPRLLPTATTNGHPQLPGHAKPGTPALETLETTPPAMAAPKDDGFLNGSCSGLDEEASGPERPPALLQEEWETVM
# Hit rate of the full screen: of about 410,000 compounds, about 310 (0.076%) were called active. The shares of active, inactive and inconclusive entries below differ from those in the screen. Calls follow the shape of the dose curve; as a rule, active = well fitted activation curve with a large enough effect; inconclusive = small, poorly fitted or top-dose-only effect, or another doubt; inactive = no such curve, though single readings can be large or run the other way. Potencies of inconclusive entries are doubtful fits and often do not repeat. Some compounds were tested as several samples or in several runs, with calls that do not always agree.
# Target: Parathyroid hormone/parathyroid hormone-related peptide receptor (Homo sapiens) (UniProt Q03431)
# Test: qHTS for PTHR1 Agonists: Primary Screen; also: nearly all actives have a fitted effect of over 55% in size
# Conditions: HEK293 GP2 PTHR1 cells, GloSensor cAMP luminescence, 1 h; activation: at 115 µM (top of the series) unless noted; series mostly up to 115 µM
# How it was run: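 HEK-293-derived GP2 cells expressing PTHR1 and a GloSensor cAMP reporter, 3,000/well, plated overnight, given luciferin plus IBMX (each 0.5 mM as added) for 1 h at 37 °C, then compound for 1 h at 37 °C. Luminescence was read after 15 min at room temperature.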
# Potency is read from the fitted curve at half-maximal effect.
SMILES,activation,Potency
O=C(CN(C(=O)CNC(=O)c1ccco1)c1cccc(F)c1)NC1CCCCC1,inconclusive: 39% [activator],–
CS(=O)(=O)N1CCCC(C(=O)Nc2ccc(F)cc2F)C1 (configuration not stated),inconclusive: -7.86% [activator],–
O=C(Oc1ccc(-c2cnc3ccccc3n2)cc1)c1cccc([N+](=O)[O-])c1,–,inactive
O=Cc1ccc(OCCOc2ccc([N+](=O)[O-])cc2)cc1,inconclusive: 24.3% [activator],–
O=C(c1ccc(S(=O)(=O)N2CCCC2)cc1)N1CCC(CN2C(=O)c3cccc4cccc(c34)C2=O)CC1,inconclusive: 35.5% [activator],–
COc1ccc(-c2cn[nH]c2-c2ccc(OCc3ccccc3)cc2O)cc1OC,–,inactive
O=C1NC(=Nc2cccc([N+](=O)[O-])c2)SC1(CO)CO,–,"inconclusive: 50.1 µM [activator, partial curve, poor fit]"
C[C@H]1CN([C@@H](C)CO)C(=O)CCCn2nncc2CO[C@H]1CN(C)C(=O)Nc1ccc2c(c1)OCO2,–,inactive
CCCNc1nc(C)cc(-c2cc(-c3ccccc3)on2)n1,inconclusive: 34% [activator],–
O=C(Nc1ccc(Nc2ccccc2)cc1)c1ccc(Cl)cc1[N+](=O)[O-],inconclusive: -93.1% [activator],–
O=C(COc1ccccc1)N1CCN(c2nnc(-c3ccccc3)c3ccccc23)CC1,–,"inconclusive: 0.447 µM [activator, full curve, poor fit]"
Cc1c(Cl)cccc1NC(=O)CSc1nc2ncccc2o1,–,"inconclusive: 22.4 µM [activator, partial curve, poor fit]"
Cc1cccc(CCNC(=O)c2ccc(CSCc3cccc(Cl)c3)o2)c1,–,inactive
COc1ccccc1-n1c(=S)[nH]c2c(sc(=S)n2-c2ccc(C)cc2C)c1=O,–,"inconclusive: 112 µM [activator, partial curve, poor fit]"
COc1ccc(NS(=O)(=O)c2ccc(N3CCCC3)c(NC(=S)Nc3cccc(C)c3C)c2)cc1,–,inactive
CCc1ccc(Sc2cc(C(=O)O)c3ccccc3n2)cc1,–,inactive
Cc1sc2nc(SCCN(C)C)n(-c3ccccc3)c(=O)c2c1-c1ccc(F)cc1,inconclusive: -58.6% [activator],–
Cc1ccc(NC(=O)CC2Nc3cc(C)c(C)cc3NC2=O)c(C)c1 (configuration not stated),–,"inconclusive: 50.1 µM [activator, partial curve, poor fit]"
CCOc1ccccc1NC(=O)C1=C(C)Nc2ncnn2C1c1ccc(NC(C)=O)cc1 (configuration not stated),–,"inconclusive: 8.91 µM [activator, partial curve, poor fit]"
COC(=O)C1=C2SCC(=O)N2C(N)=C(C#N)C1,–,"inconclusive: 63.1 µM [activator, partial curve, poor fit]"
COc1ccc2[nH]c3c(c2c1)CCC/C3=N\N,inconclusive: 41.7% [activator],–
CC1=Nn2c(nnc2-c2cc(-c3ccccc3)n[nH]2)SC1,inconclusive: -6.53% [activator] [at 57.5 µM],–
CC(=O)c1ccc(OCCCC(=O)OCC(=O)Nc2ccc3[nH]c(=O)[nH]c3c2)cc1,–,inactive
O=C(COC(=O)c1cncc(Br)c1)NCC1CCCO1 (configuration not stated),–,inactive

SMILES,activation,Potency
CN(c1ccccc1)S(=O)(=O)c1nnc(NC(=O)COc2ccccc2)s1,–,inactive
CC(=O)Nc1ccc(N2CCN(Cc3ccccc3F)CC2)cc1,inconclusive: 44.3% [activator] [at 57.5 µM],–
CCS(=O)(=O)Nc1ccc(C2=NN(C(=O)c3ccco3)C(c3cccs3)C2)cc1 (configuration not stated),–,inactive
CCc1nc2ccc(C(=O)NCCC(C)C)cn2c1N(C)Cc1nccs1,–,"inconclusive: 50.1 µM [activator, partial curve, poor fit]"
NCC12CC3CC(C1)CC(CN)(C3)C2,–,"inconclusive: 50.1 µM [activator, single point]"
N/C(=N\OC(=O)c1cc(-c2ccccc2)nc2ccccc12)c1ccc(Cl)cc1,–,"inconclusive: 50.1 µM [activator, single point]"
O=C1C=CC(=O)N1CCNc1ncc(C(F)(F)F)cc1Cl,–,inactive
CCOC(=O)N1CCN(C(=O)CN(c2cccc(Cl)c2)S(=O)(=O)c2ccccc2)CC1,–,inactive
CCCc1cc(=O)n2[nH]c(NC(=O)c3ccccc3Cl)nc2n1,–,"inconclusive: 126 µM [activator, single point]"
CCn1ncc(C2=NOC(C(=O)Nc3ccccc3C(=O)OC)C2)c1C (configuration not stated),inconclusive: 42.4% [activator] [at 57.5 µM],–
CCOc1ccc(C(C)=O)cc1CN1C(=O)NC2(CCCCC2C)C1=O (configuration not stated),–,"inconclusive: 14.1 µM [activator, partial curve, poor fit]"
C/C(=N\NC(=O)c1ccccc1)c1ccccc1Br,–,inactive
CCOC(=O)c1sc(N2C(=O)c3oc4ccc(C)cc4c(=O)c3C2c2ccccc2F)nc1C (configuration not stated),–,"inconclusive: 126 µM [activator, single point]"
COc1cc(C)c(Br)cc1S(=O)(=O)NCc1ccccc1,inconclusive: 88.3% [activator] [at 57.5 µM],–
COc1ccccc1-c1ccc(NC2CCCCC2)nn1,–,inactive
Cc1ccc(NC(=O)c2nn(C34CC5CC(CC(C5)C3)C4)cc2[N+](=O)[O-])cc1,inconclusive: 40.9% [activator] [at 57.5 µM],–
Cc1cc(C)n(-c2nc3ccccc3nc2Nc2ccc(Cl)c(Cl)c2)n1,–,"inconclusive: 158 µM [activator, single point]"
Cc1ccc(S(=O)(=O)N2CCC(C(=O)NNC(=O)c3ccccc3)CC2)cc1,–,"inconclusive: 44.7 µM [activator, partial curve, poor fit]"
O=C(O)c1cccc(Nc2ncnc3ccc(Br)cc23)c1,–,active: 8.91 µM
O=[N+]([O-])c1ccc(F)c(N=Cc2ccc(Br)s2)c1,–,"inconclusive: 7.08 µM [activator, partial curve, poor fit]"
NS(=O)(=O)c1ccc(NC(=O)CCc2ccccc2)cc1,–,"inconclusive: 2.24 µM [activator, partial curve, poor fit]"
Cc1ccc(S(=O)(=O)N2CCN(Cc3nc4ccc(C)cc4o3)CC2)cc1,inconclusive: -5.33% [activator],–
CCN(CC)S(=O)(=O)c1ccc(S(=O)(=O)N2CCCC2)cc1,–,inactive
COc1ccc(NC(=O)CN2CCCCC2)c([N+](=O)[O-])c1,–,inactive

# 4 of these compounds, set out differently.
SMILES | activation | Potency
CCCNc1nc(C)cc(-c2cc(-c3ccccc3)on2)n1 | inconclusive: 34% [activator] | –
O=C(Nc1ccc(Nc2ccccc2)cc1)c1ccc(Cl)cc1[N+](=O)[O-] | inconclusive: -93.1% [activator] | –
O=C(COc1ccccc1)N1CCN(c2nnc(-c3ccccc3)c3ccccc23)CC1 | – | inconclusive: 0.447 µM [activator, full curve, poor fit]
Cc1c(Cl)cccc1NC(=O)CSc1nc2ncccc2o1 | – | inconclusive: 22.4 µM [activator, partial curve, poor fit]

# Next part

SMILES,activation,Potency
C=CCN(C/C(=N\O)c1sc(C(=O)OCC)nc1C)c1cccc(Br)c1,–,inactive
O=C(CSc1ccccc1F)NNC(=O)c1ccncc1,–,inactive
CCC(=O)Nc1ccc2oc(-c3cccnc3)nc2c1,–,inactive
Clc1ccc2c(c1)NC(c1ccncc1)=NC(c1cccs1)=N2,–,inactive
CC1CN(C(=O)COC(=O)c2ccc(O)cc2)CC(C)O1 (configuration not stated),–,"inconclusive: 89.1 µM [activator, single point]"
CCCN(Cc1cc2ccc(C)cc2[nH]c1=O)C(=O)c1ccccn1,–,"inconclusive: 56.2 µM [activator, partial curve, poor fit]"
CCN1CCN(C(=O)c2cnn(-c3cccc(Cl)c3)c2C2CCN(C(=O)OC(C)(C)C)CC2)CC1,–,"inconclusive: 126 µM [activator, single point]"
COC(=O)CSc1nc2nc(C)cc(C)n2n1,inconclusive: 37.2% [activator],–
COC(=O)N/N=C/c1cccc([N+](=O)[O-])c1,–,inactive
CC(=O)Nc1ccc(S(=O)(=O)NC2=NCN(CCOC(=O)c3ccccc3)CN2)cc1,–,"inconclusive: 0.193 µM [activator, full curve, poor fit]"
CCn1c2ccccc2c2c3ncc4cccn4c3ccc21,–,inactive
CCOCCCNCc1ccc(OCc2ccccc2C)c(OC)c1,inconclusive: 36.9% [activator],–
CN(C)S(=O)(=O)c1ccc(N2CCCC2)c(C(=O)NNC(=O)c2ccc(Br)cc2)c1,–,"inconclusive: 50.1 µM [activator, partial curve, poor fit]"
CC1CCc2c(sc(NC(=O)CCC(=O)O)c2C(=O)NC2CC2)C1 (configuration not stated),–,"inconclusive: 79.4 µM [activator, partial curve, poor fit]"
NS(=O)(=O)c1ccc(NC(=O)CN2C(=O)COc3ccc(Cl)cc32)cc1,–,inactive
Cc1cc(NC(=O)CC#N)n(-c2ccccc2)n1,–,"inconclusive: 126 µM [activator, single point]"
CCOC(=O)Cc1csc(NC(=O)CN2CCN(CC)CC2)n1,–,"inconclusive: 5.01 µM [activator, full curve, poor fit]"
CCC(=O)NC(Nc1cc(C)ccn1)(C(F)(F)F)C(F)(F)F,–,"inconclusive: 39.8 µM [activator, single point]"
CN(C)N1C(N)=C(C#N)C(c2ccccc2)C2=C1CCCC2=O (configuration not stated),–,"inconclusive: 50.1 µM [activator, partial curve, poor fit]"
O=S(=O)(c1ccc(Cl)cc1)c1snnc1-c1ccccc1,–,inactive
CN(C)c1ccc(-c2ccnc3c2CC(C)(C(=O)Nc2cccc(OC(F)(F)F)c2)O3)cc1 (configuration not stated),–,"inconclusive: 100 µM [activator, partial curve, poor fit]"
O=C(c1cccs1)N1CCN(c2cccc(Cl)c2)CC1,inconclusive: 40.2% [activator],–
Cc1cc(C)c(S(C)(=O)=O)c(Oc2ccccc2C)n1,–,"inconclusive: 89.1 µM [activator, partial curve, poor fit]"
COC(=O)c1cc(S(=O)(=O)N2CCOCC2)c(N2CCOCC2)cc1N1CCOCC1,–,"inconclusive: 141 µM [activator, single point]"
